# According to paper PMC3037912:
# These are yes or no findings as the source states them, for the method shown. Binding seen in cells or lysates may run through a third protein. For some assays here: Binding calls can cover weak binding; strength is not graded here. For some assays here: Sequences can lack the tags named with a protein.
# T1: GST-annexin A6 fusion protein, full length (UniProt P48037)
# T1 sequence: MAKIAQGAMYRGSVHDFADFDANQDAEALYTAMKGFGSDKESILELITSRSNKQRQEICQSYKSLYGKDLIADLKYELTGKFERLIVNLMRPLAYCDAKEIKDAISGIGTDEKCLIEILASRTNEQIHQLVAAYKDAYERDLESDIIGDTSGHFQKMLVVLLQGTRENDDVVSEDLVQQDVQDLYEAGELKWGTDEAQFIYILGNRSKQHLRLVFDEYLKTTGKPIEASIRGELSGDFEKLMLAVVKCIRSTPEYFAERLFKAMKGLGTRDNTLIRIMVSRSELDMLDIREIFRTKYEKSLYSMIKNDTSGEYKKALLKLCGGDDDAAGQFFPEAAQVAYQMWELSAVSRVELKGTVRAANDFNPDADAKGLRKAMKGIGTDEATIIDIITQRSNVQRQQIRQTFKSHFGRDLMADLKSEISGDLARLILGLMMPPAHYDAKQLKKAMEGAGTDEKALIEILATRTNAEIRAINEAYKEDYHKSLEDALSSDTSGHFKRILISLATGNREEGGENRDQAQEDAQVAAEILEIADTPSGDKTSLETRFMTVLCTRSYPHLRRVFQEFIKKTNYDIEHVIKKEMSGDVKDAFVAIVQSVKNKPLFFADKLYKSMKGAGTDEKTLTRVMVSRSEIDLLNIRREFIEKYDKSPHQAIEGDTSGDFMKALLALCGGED
# T2: GST-AnxA6 ΔC1 (UniProt P48037)
# T2 sequence: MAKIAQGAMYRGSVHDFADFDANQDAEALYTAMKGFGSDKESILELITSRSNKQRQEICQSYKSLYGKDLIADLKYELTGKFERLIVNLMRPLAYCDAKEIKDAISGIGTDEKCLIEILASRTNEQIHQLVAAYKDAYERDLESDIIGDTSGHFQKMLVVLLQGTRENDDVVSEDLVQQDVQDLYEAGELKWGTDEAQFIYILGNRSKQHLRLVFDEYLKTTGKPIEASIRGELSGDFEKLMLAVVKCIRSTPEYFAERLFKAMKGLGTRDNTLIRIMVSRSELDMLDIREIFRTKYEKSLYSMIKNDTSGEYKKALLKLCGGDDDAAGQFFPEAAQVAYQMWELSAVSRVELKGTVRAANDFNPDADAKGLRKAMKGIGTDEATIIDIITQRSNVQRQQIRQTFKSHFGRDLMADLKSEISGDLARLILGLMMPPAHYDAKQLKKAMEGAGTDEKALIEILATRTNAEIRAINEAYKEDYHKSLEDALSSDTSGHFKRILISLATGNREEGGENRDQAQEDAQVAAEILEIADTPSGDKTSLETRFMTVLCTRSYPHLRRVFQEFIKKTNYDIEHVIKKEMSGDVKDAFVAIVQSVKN
# T3: GST-AnxA6 ΔC3 (UniProt P48037)
# T3 sequence: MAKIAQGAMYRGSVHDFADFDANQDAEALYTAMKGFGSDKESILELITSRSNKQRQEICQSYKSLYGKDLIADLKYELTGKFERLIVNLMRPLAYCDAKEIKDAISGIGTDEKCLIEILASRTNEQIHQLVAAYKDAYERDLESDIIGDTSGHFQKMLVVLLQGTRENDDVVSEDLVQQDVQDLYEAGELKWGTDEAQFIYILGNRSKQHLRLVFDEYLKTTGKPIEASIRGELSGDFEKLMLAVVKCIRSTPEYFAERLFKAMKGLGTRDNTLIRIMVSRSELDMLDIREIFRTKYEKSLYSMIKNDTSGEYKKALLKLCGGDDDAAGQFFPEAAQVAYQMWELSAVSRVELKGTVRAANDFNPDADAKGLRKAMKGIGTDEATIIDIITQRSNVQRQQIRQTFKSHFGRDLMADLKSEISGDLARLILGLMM
# T4: GST-AnxA6 ΔN1 (UniProt P48037)
# T4 sequence: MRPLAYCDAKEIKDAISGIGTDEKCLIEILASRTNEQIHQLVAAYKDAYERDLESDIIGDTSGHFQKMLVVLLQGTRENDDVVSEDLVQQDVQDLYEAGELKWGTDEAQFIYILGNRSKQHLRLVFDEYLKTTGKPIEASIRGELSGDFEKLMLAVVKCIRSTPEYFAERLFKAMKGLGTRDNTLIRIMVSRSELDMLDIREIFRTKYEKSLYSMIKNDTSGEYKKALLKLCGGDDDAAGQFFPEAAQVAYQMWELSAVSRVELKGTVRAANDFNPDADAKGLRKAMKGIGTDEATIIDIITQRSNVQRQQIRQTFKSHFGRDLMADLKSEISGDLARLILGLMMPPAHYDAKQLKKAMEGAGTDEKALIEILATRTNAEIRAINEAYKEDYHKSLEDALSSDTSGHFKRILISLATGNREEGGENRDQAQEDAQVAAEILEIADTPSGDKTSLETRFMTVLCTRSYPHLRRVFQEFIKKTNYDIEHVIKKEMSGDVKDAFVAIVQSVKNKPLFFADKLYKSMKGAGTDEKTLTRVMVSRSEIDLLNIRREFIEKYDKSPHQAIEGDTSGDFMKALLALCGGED
# T5: GST-AnxA6 ΔN2 (UniProt P48037)
# T5 sequence: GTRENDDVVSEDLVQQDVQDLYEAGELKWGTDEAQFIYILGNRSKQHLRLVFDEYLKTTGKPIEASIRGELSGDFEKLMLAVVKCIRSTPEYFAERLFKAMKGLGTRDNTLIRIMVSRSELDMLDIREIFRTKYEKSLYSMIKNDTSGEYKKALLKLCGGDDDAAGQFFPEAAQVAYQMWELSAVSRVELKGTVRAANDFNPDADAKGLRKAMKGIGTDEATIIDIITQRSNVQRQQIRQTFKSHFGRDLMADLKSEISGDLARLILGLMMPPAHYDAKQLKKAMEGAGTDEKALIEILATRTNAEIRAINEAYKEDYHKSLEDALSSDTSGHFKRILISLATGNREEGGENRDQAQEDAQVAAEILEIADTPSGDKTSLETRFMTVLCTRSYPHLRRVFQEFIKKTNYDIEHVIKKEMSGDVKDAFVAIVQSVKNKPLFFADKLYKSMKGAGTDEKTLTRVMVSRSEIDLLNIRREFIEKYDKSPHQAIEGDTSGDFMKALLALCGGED
# T6: GST-AnxA6 ΔN3 (UniProt P48037)
# T6 sequence: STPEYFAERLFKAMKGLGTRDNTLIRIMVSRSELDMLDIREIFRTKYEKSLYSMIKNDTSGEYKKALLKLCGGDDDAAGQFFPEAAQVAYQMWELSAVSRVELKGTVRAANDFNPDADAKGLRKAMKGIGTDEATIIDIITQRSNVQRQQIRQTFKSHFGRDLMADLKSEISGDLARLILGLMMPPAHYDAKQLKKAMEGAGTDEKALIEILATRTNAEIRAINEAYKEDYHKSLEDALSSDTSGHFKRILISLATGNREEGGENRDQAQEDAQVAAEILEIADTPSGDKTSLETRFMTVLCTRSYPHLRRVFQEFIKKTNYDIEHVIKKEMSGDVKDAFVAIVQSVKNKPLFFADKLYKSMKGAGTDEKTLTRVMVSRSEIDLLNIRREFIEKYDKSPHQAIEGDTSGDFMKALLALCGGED
# Experiments:
# [1] = biological target: T1, GST-annexin A6 fusion protein, full length; experiment: pull-down; as the in vitro binding assay, but with delipidated (lipid depleted) whole heart homogenate; immunoblot with anti sarcomeric α-actinin antibody; only the target purified
# GST-AnxA6 ΔC1 = biological target: T2, GST-AnxA6 ΔC1; experiment: pull-down; GST-AnxA6 or its deletion mutants on glutathione-sepharose incubated with solubilised rat whole heart homogenate (1.5 mg), 4°C, 5 hours; wash buffer 10 mM Tris pH 8.5, 0.01% NP-40, 5 mM EDTA, 2 mM DTT, 0.05% SDS; immunoblot with anti sarcomeric α-actinin antibody; only the target …
# GST-AnxA6 ΔC3 = biological target: T3, GST-AnxA6 ΔC3; experiment: as above
# GST-AnxA6 ΔN1 = biological target: T4, GST-AnxA6 ΔN1; experiment: as above
# GST-AnxA6 ΔN2 = biological target: T5, GST-AnxA6 ΔN2; experiment: as above
# GST-AnxA6 ΔN3 = biological target: T6, GST-AnxA6 ΔN3; experiment: as above
# [2] = biological target: T1, GST-annexin A6 fusion protein, full length; experiment: as above
# [3] = biological target: sarcomeric alpha-actinin (rat (endogenous in heart homogenate)); experiment: co-IP; rat whole heart homogenate immunoprecipitated with anti sarcomeric α-actinin antibody on Protein A agarose, overnight at 4°C; western blot with anti-AnxA6 antibody
binding [1],binding (GST-AnxA6 ΔC1),binding (GST-AnxA6 ΔC3),binding (GST-AnxA6 ΔN1),binding (GST-AnxA6 ΔN2),binding (GST-AnxA6 ΔN3),binding [2],binding [3],Molecule
binds,binds,binds,no binding,no binding,no binding,binds,–,sarcomeric alpha-actinin (rat (endogenous in heart homogenate))
–,–,–,–,–,–,–,binds,"annexin A6, endogenous in rat heart (protein, UniProt P48037 1-673) MAKIAQGAMYRGSVHDFADFDANQDAEALYTAMKGFGSDKESILELITSRSNKQRQEICQSYKSLYGKDLIADLKYELTGKFERLIVNLMRPLAYCDAKEIKDAISGIGTDEKCLIEILASRTNEQIHQLVAAYKDAYERDLESDIIGDTSGHFQKMLVVLLQGTRENDDVVSEDLVQQDVQDLYEAGELKWGTDEAQFIYILGNRSKQHLRLVFDEYLKTTGKPIEASIRGELSGDFEKLMLAVVKCIRSTPEYFAERLFKAMKGLGTRDNTLIRIMVSRSELDMLDIREIFRTKYEKSLYSMIKNDTSGEYKKALLKLCGGDDDAAGQFFPEAAQVAYQMWELSAVSRVELKGTVRAANDFNPDADAKGLRKAMKGIGTDEATIIDIITQRSNVQRQQIRQTFKSHFGRDLMADLKSEISGDLARLILGLMMPPAHYDAKQLKKAMEGAGTDEKALIEILATRTNAEIRAINEAYKEDYHKSLEDALSSDTSGHFKRILISLATGNREEGGENRDQAQEDAQVAAEILEIADTPSGDKTSLETRFMTVLCTRSYPHLRRVFQEFIKKTNYDIEHVIKKEMSGDVKDAFVAIVQSVKNKPLFFADKLYKSMKGAGTDEKTLTRVMVSRSEIDLLNIRREFIEKYDKSPHQAIEGDTSGDFMKALLALCGGED"
